Record: PubChem BioAssay AID1259254 (NCATS, 2017)
Test: 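Genome-wide screen for genes that prevent DNA re-replication in cancer cells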 (primary screen). Cell system: human HCT116 colorectal cancer cells. Reagents: single siRNA against human genes. Duration: 3 days. Measurement: 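Imaged Hoechst DNA stain sorts each cell into a cycle phase by DNA amount; per plate, G2 fraction set to 0% for non-targeting and 100% for GMNN siRNA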. Reading the numbers: G2 robust z-score: higher = more G2 cells, more excess DNA replication. Active means: 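Active siRNAs have a G2 robust z of 5 or more median absolute deviations over the median, which in these data means about 38% or higher of GMNN control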.
This is a random part of about 59,000 reagents tested. About 1,550 of all reagents (2.6%) were called active. 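G2 share is only a proxy for re-replication; each gene was hit by three separate siRNAs, and active genes were retested.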 Entries without a mark were called inactive. Further read-outs or replicates are left out here. The record does not give: the amount of reagent.

G2 robust z-score, by target gene and reagent
ZNF532 (GeneID 55205): SID160743220 1.04; SID160743221 -1.2; SID160743222 -0.174
AMH (GeneID 268): SID160723648 -0.575; SID160723649 -0.144; SID160723650 4.95
CDCP2 (GeneID 200008): SID160760783 1.66; SID160760784 3.46; SID160760785 0.811
ICA1L (GeneID 130026): SID160756920 -0.769; SID160756921 1.96; SID160756922 -0.32
WDR89 (GeneID 112840): SID160754744 0.997; SID160754745 2.37; SID160754746 -0.786
CCDC8 (GeneID 83987): SID160735072 -0.144; SID160751591 0.523; SID160751592 0.231
FOXC2 (GeneID 2303): SID160723765 -0.893; SID160730819 0.54; SID160766164 3.91
CDH6 (GeneID 1004): SID160740479 -1.38; SID160740490 -0.611; SID160740501 -0.762
ABHD10 (GeneID 55347): SID160743605 -0.871; SID160743606 -0.167; SID160743607 3.22
ZNF518B (GeneID 85460): SID160753331 -0.321; SID160753333 -0.164; SID160753334 0.107
CDH16 (GeneID 1014): SID160740769 -1.17; SID160740780 1.39; SID160740791 0.754
TMEM165 (GeneID 55858): SID160744538 -0.222; SID160744539 1.74; SID160744540 2.58
ZSCAN18 (GeneID 65982): SID160748353 1.94; SID160748355 -1.24; SID160748356 -0.583
SLC14A1 (GeneID 6563): SID160716945 0.365; SID160716946 5.19 (active); SID160731759 3.56
SRC (GeneID 6714): SID160717314 -1.07; SID160717315 4.77; SID160717316 0.394
SLC18A2 (GeneID 6571): SID160716967 0.16; SID160716968 -0.85; SID160716970 -0.565
